Consider nine sequences from paper PMC10079658.

Construct, isoform or probe ends are uncertain for at least one entry. No signal at the amounts used counts as a negative. A weaker result is weaker than the reference pair of the same experiment.

For this data set, the system named is His-Hsp70 (Heat Shock Protein 70). In words: fluorescence plate binding assay. The following applies: A after primer (nt 19) are 7-phenylbutyl-7-deaza-dA (A*); 25 mM HEPES, 5 mM MgCl2, 300 mM KCl, pH 7.4 (BLI) or 7.5 (SELEX), 24 °C; plate assay washes with 1% BSA, 0.05% Tween 20; aptamers folded 95 °C 5 min then cooled; protein details: His; label: 5'-6-FAM; synthetic backbone.
As for “GCAGCAGAGATAGACGCTAAGACCTCATAGTCCTTCTAATTATACTCCAATGGCATAGCTGGCAC [HSe-9]”, the binding result is given as “binds”. In the case of “GCAGCAGAGATAGACGCTAGATCTCCAGTCCTTCTAATTAATACTCCAATGGCATAGCTGGCAC [HSe-7]”, the binding result is “binds more weakly”. The same measure for “GCAGCAGAGATAGACGCTAAGGGAAGTAGGAAGAAGGGATGCCCTGCAATGGCATAGCTGGCAC [HSe-3]”: “binds more weakly”; for “GCAGCAGAGATAGACGCTATCTCTTAGACCTTCTAATTTAACTACTCAATGGCATAGCTGGCAC [HSe-6]”: “binds more weakly”. The same measure for “GCAGCAGAGATAGACGCTAGGATCTCATAGTTCTTGTAATGATACTCCAATGGCATAGCTGGCAC [HSe-4]”: “binds more weakly”; for “GCAGCAGAGATAGACGCTAATCGATGAGACCTTCTAATTAACTATTCCAATGGCATAGCTGGCAC [HSe-5]”: “binds more weakly”; for “GCAGCAGAGATAGACGCTAGTCCTCATAGGCCTTCTAATTAACTATTCAATGGCATAGCTGGCAC [HSe-8]”: “binds more weakly”. Then “GCAGCAGAGATAGACGCTATTCTCTAGACCTTCTAATTTACATACTCCAATGGCATAGCTGGCAC [HSe-2]”, with “binds”; and “GCAGCAGAGATAGACGCTATTTCTTAGACCTTTCTAATTTAACTACTCAATGGCATAGCTGGCAC [HSe-1]”, with “no binding”.
